# Measured values published in PubChem BioAssay AID504580 (NMMLSC, 2011).
# Hit rate of the full screen: of about 2,000 compounds, fewer than 10 were called active.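 The calls were made as follows: active = compounds that quench the bead-bound fluorescent RNA probe, cutting fluorescence to under half of the solvent control; inactive = the rest.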 The list shows a part of the results, in another mix than the full data.
# Test: fluorescent RNA aptamer quenching, single concentration, confirmation, artefact control for GRK2 RNA aptamer inhibitor project, biochemical, single point, cherry pick 1, flow cytometry (AID 504580);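 also: counterscreen run without GRK2 so only probe quenching by compound is measured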
# Details: Carboxyfluorescein RNA aptamer on beads, at 10 µM, stronger effect = lower value
row,Structure (SMILES),fluorescence response (% of DMSO)
1,Cc1c(C(=O)O)cccc1-n1c(C)cc(/C=C2\C(=O)NC(=O)N(c3ccc4c(c3)OCO4)C2=O)c1C,inactive: 99.4%
2,Nc1ccc2ccc3cccc[n+]3c2c1,active: 44.3%
3,O=C1NC(=O)N(Cc2ccco2)C(=O)/C1=C\c1cccn1CCOc1ccccc1,inactive: 102%
